Source: the supplement of paper PMC8728848
This is one part of the list.

Assays:
Assay in all cases: glycan array binding signal (z-score within array); higher = stronger binding
Details in all cases: glycan notation: IUPAC condensed, linker removed
[1] = molecular target: Fuc(a1-2)[Gal(a1-3)]Gal(b1-4)GlcNAc(b1-2)Man(a1-3)[Fuc(a1-2)[Gal(a1-3)]Gal(b1-4)GlcNAc(b1-2)Man(a1-6)]Man(b1-4)GlcNAc(b1-4)[Fuc(a1-6)]GlcNAc
Outline: (§1)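 Negative Z-scores can be read as non-binding. The Z-score is calculated within each array and then averaged across arrays of one protein sequence at different concentrations or buffers and across linkers. Arrays, 3228 in all, were curated from the Consortium for Functional Glycomics database and kept only where the protein sequence was available.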

[2] = molecular target: Fuc(a1-2)[Gal(a1-3)]Gal(b1-4)GlcNAc(b1-3)GalNAc
Outline: as §1

[3] = molecular target: Fuc(a1-2)[Gal(a1-3)]Gal(b1-4)GlcNAc(b1-6)GalNAc
Outline: as §1

[4] = molecular target: Fuc(a1-2)[Gal(a1-3)]Gal(b1-4)[Fuc(a1-3)]Glc
Outline: as §1

[5] = molecular target: Fuc(a1-2)[Gal(a1-3)]Gal(b1-4)[Fuc(a1-3)]GlcNAc
Outline: as §1

[6] = molecular target: Fuc(a1-2)[Gal(a1-3)]Gal(b1-4)[Fuc(a1-3)]GlcNAc(b1-3)GalNAc
Outline: as §1

[7] = molecular target: Fuc(a1-2)[Gal(a1-4)]Gal(b1-4)GlcNAc
Outline: as §1

[8] = molecular target: Fuc(a1-2)[GalNAc(a1-3)]Gal
Outline: as §1

[9] = molecular target: Fuc(a1-2)[GalNAc(a1-3)]Gal(b1-3)GalNAc(a1-3)[Fuc(a1-2)]Gal(b1-4)GlcNAc
Outline: as §1

[10] = molecular target: Fuc(a1-2)[GalNAc(a1-3)]Gal(b1-3)GalNAc(b1-3)Gal(a1-4)Gal(b1-4)Glc
Outline: as §1

[11] = molecular target: Fuc(a1-2)[GalNAc(a1-3)]Gal(b1-3)GlcNAc
Outline: as §1

[12] = molecular target: Fuc(a1-2)[GalNAc(a1-3)]Gal(b1-3)GlcNAc(b1-2)Man(a1-3)[Fuc(a1-2)[GalNAc(a1-3)]Gal(b1-3)GlcNAc(b1-2)Man(a1-6)]Man(b1-4)GlcNAc(b1-4)GlcNAc
Outline: as §1

[13] = molecular target: Fuc(a1-2)[GalNAc(a1-3)]Gal(b1-3)GlcNAc(b1-2)Man(a1-3)[Fuc(a1-2)[GalNAc(a1-3)]Gal(b1-3)GlcNAc(b1-2)Man(a1-6)]Man(b1-4)GlcNAc(b1-4)[Fuc(a1-6)]GlcNAc
Outline: as §1

[14] = molecular target: Fuc(a1-2)[GalNAc(a1-3)]Gal(b1-3)GlcNAc(b1-3)GalNAc
Outline: as §1

[15] = molecular target: Fuc(a1-2)[GalNAc(a1-3)]Gal(b1-3)GlcNAc(b1-6)GalNAc
Outline: as §1

[16] = molecular target: Fuc(a1-2)[GalNAc(a1-3)]Gal(b1-4)Glc
Outline: as §1

[17] = molecular target: Fuc(a1-2)[GalNAc(a1-3)]Gal(b1-4)GlcNAc
Outline: as §1

[18] = molecular target: Fuc(a1-2)[GalNAc(a1-3)]Gal(b1-4)GlcNAc(b1-2)Man
Outline: as §1

[19] = molecular target: Fuc(a1-2)[GalNAc(a1-3)]Gal(b1-4)GlcNAc(b1-2)Man(a1-3)[Fuc(a1-2)[GalNAc(a1-3)]Gal(b1-4)GlcNAc(b1-2)Man(a1-6)]Man(b1-4)GlcNAc(b1-4)GlcNAc
Outline: as §1

[20] = molecular target: Fuc(a1-2)[GalNAc(a1-3)]Gal(b1-4)GlcNAc(b1-2)Man(a1-3)[Fuc(a1-2)[GalNAc(a1-3)]Gal(b1-4)GlcNAc(b1-2)Man(a1-6)]Man(b1-4)GlcNAc(b1-4)[Fuc(a1-6)]GlcNAc
Outline: as §1

[21] = molecular target: Fuc(a1-2)[GalNAc(a1-3)]Gal(b1-4)GlcNAc(b1-3)Gal(b1-4)GlcNAc
Outline: as §1

[22] = molecular target: Fuc(a1-2)[GalNAc(a1-3)]Gal(b1-4)GlcNAc(b1-3)Gal(b1-4)GlcNAc(b1-3)Gal(b1-4)GlcNAc
Outline: as §1

[23] = molecular target: Fuc(a1-2)[GalNAc(a1-3)]Gal(b1-4)GlcNAc(b1-3)GalNAc
Outline: as §1

[24] = molecular target: Fuc(a1-2)[GalNAc(a1-3)]Gal(b1-4)GlcNAc(b1-3)[Fuc(a1-2)[GalNAc(a1-3)]Gal(b1-4)GlcNAc(b1-6)]GalNAc
Outline: as §1

[25] = molecular target: Fuc(a1-2)[GalNAc(a1-3)]Gal(b1-4)GlcNAc(b1-6)GalNAc
Outline: as §1

[26] = molecular target: Fuc(a1-2)[GalNAc(a1-3)]Gal(b1-4)[Fuc(a1-3)]GlcNAc
Outline: as §1

[27] = molecular target: Fuc(a1-2)[GalNAc(a1-3)]Gal(b1-4)[Fuc(a1-3)]GlcNAc(b1-3)GalNAc
Outline: as §1

[28] = molecular target: Fuc(a1-2)[GalNAc(a1-4)]Gal(b1-4)GlcNAc
Outline: as §1

[29] = molecular target: Fuc(a1-2)[GalNAc(b1-3)]Gal
Outline: as §1

[30] = molecular target: Fuc(a1-3)GlcNAc
Outline: as §1

[31] = molecular target: Fuc(a1-3)[Gal(b1-4)]Glc6S
Outline: as §1

[32] = molecular target: Fuc(a1-3)[Gal(b1-4)]GlcNAc
Outline: as §1

[33] = molecular target: Fuc(a1-3)[Gal(b1-4)]GlcNAc(b1-2)Man
Outline: as §1

[34] = molecular target: Fuc(a1-3)[Gal(b1-4)]GlcNAc(b1-2)Man(a1-3)[Fuc(a1-3)[Gal(b1-4)]GlcNAc(b1-2)Man(a1-6)]Man(b1-4)GlcNAc(b1-4)GlcNAc
Outline: as §1

[35] = molecular target: Fuc(a1-3)[Gal(b1-4)]GlcNAc(b1-2)Man(a1-3)[Fuc(a1-3)[Gal(b1-4)]GlcNAc(b1-2)Man(a1-6)]Man(b1-4)GlcNAc(b1-4)[Fuc(a1-6)]GlcNAc
Outline: as §1

[36] = molecular target: Fuc(a1-3)[Gal(b1-4)]GlcNAc(b1-3)Gal(b1-3)[Fuc(a1-4)]GlcNAc
Outline: as §1

[37] = molecular target: Fuc(a1-3)[Gal(b1-4)]GlcNAc(b1-3)GalNAc
Outline: as §1

[38] = molecular target: Fuc(a1-3)[Gal(b1-4)]GlcNAc(b1-4)Gal(b1-4)[Fuc(a1-3)]GlcNAc
Outline: as §1

[39] = molecular target: Fuc(a1-3)[Gal(b1-4)]GlcNAc(b1-4)Gal(b1-4)[Fuc(a1-3)]GlcNAc(b1-4)Gal(b1-4)[Fuc(a1-3)]GlcNAc
Outline: as §1

[40] = molecular target: Fuc(a1-3)[Gal(b1-4)]GlcNAc(b1-6)GalNAc
Outline: as §1

[41] = molecular target: Fuc(a1-3)[Gal(b1-4)]GlcNAc(b1-6)[Gal(b1-3)GlcNAc(b1-3)]Gal(b1-4)Glc
Outline: as §1

[42] = molecular target: Fuc(a1-3)[Gal(b1-4)]GlcNAc6S
Outline: as §1

[43] = molecular target: Fuc(a1-3)[Gal3S(b1-4)]Glc
Outline: as §1

[44] = molecular target: Fuc(a1-3)[Gal3S(b1-4)]GlcNAc
Outline: as §1

[45] = molecular target: Fuc(a1-3)[Gal3S(b1-4)]GlcNAc6S
Outline: as §1

[46] = molecular target: Fuc(a1-3)[GalNAc(b1-4)]GlcNAc
Outline: as §1

[47] = molecular target: Fuc(a1-3)[GalNAc(b1-4)]GlcNAc6S
Outline: as §1

[48] = molecular target: Fuc(a1-4)GlcNAc
Outline: as §1

[49] = molecular target: Fuc(b1-3)GlcNAc
Outline: as §1

[50] = molecular target: Gal(a1-2)Gal
Outline: as §1

[51] = molecular target: Gal(a1-3)Gal
Outline: as §1

[52] = molecular target: Gal(a1-3)Gal(b1-3)GlcNAc
Outline: as §1

[53] = molecular target: Gal(a1-3)Gal(b1-3)GlcNAc(b1-2)Man
Outline: as §1

[54] = molecular target: Gal(a1-3)Gal(b1-3)GlcNAc(b1-2)Man(a1-3)[Gal(a1-3)Gal(b1-3)GlcNAc(b1-2)Man(a1-6)]Man(b1-4)GlcNAc(b1-4)GlcNAc
Outline: as §1

[55] = molecular target: Gal(a1-3)Gal(b1-3)GlcNAc(b1-3)GalNAc
Outline: as §1

[56] = molecular target: Gal(a1-3)Gal(b1-3)GlcNAc(b1-6)GalNAc
Outline: as §1

[57] = molecular target: Gal(a1-3)Gal(b1-3)[Fuc(a1-4)]GlcNAc(b1-2)Man(a1-3)[Gal(a1-3)Gal(b1-3)[Fuc(a1-4)]GlcNAc(b1-2)Man(a1-6)]Man(b1-4)GlcNAc(b1-4)GlcNAc
Outline: as §1

[58] = molecular target: Gal(a1-3)Gal(b1-4)Glc
Outline: as §1

[59] = molecular target: Gal(a1-3)Gal(b1-4)GlcNAc
Outline: as §1

[60] = molecular target: Gal(a1-3)Gal(b1-4)GlcNAc(b1-2)Man
Outline: as §1

B1: Epf (Streptococcus pyogenes) (protein)
chain: GDHGPEFNGVMVVKAAEAEELPDDLMNFKGTWEVSADGSSGRFFSKGATDSYVFHLIPAKDVKKPGWREHNEVKDSYIKIDKQSIAARYKTSTTAPYSVAFKVNTKSLIKDHDYKITFEQGQIASGITVDYRIGSAFNKTTDDSFKISDESKYASNVKIEGEEQGFKQREQGDKTISFRTLKEGPMSLVLLSKVEKKPQGDLDVEFKNLKIIDVTNPSQLDKGVAYVGNKNVQLTLKSDDGRTNFEGDEISLFNSRGELLQTVTVTKDQQNPISITLSEDQAKSLKNKEKLKVSIKQKQSKKTSKDFFFEVGIDPKVEAKQKEKLLELDKVKKQIEDSINGDAWLPEKPVDLQGDHGLSAWSHPQFEK
- glycan array binding signal (z-score) [1]: -0.524
- glycan array binding signal (z-score) [2]: 0.559
- glycan array binding signal (z-score) [3]: 0.153
- glycan array binding signal (z-score) [4]: -0.902
- glycan array binding signal (z-score) [5]: -0.943
- glycan array binding signal (z-score) [6]: 0.223
- glycan array binding signal (z-score) [7]: 0.018
- glycan array binding signal (z-score) [8]: 0.094
- glycan array binding signal (z-score) [9]: 0.591
- glycan array binding signal (z-score) [10]: -0.316
- glycan array binding signal (z-score) [11]: 0.336
- glycan array binding signal (z-score) [12]: -0.651
- glycan array binding signal (z-score) [13]: -0.052
- glycan array binding signal (z-score) [14]: -0.53
- glycan array binding signal (z-score) [15]: -0.752
- glycan array binding signal (z-score) [16]: -0.241
- glycan array binding signal (z-score) [17]: -0.158
- glycan array binding signal (z-score) [18]: 2.08
- glycan array binding signal (z-score) [19]: 1.37
- glycan array binding signal (z-score) [20]: 0.256
- glycan array binding signal (z-score) [21]: 0.445
- glycan array binding signal (z-score) [22]: -0.273
- glycan array binding signal (z-score) [23]: 2.09
- glycan array binding signal (z-score) [24]: -1.24
- glycan array binding signal (z-score) [25]: -0.052
- glycan array binding signal (z-score) [26]: -0.288
- glycan array binding signal (z-score) [27]: -0.692
- glycan array binding signal (z-score) [28]: 1.18
- glycan array binding signal (z-score) [29]: -1.27
- glycan array binding signal (z-score) [30]: -0.134
- glycan array binding signal (z-score) [31]: 1.25
- glycan array binding signal (z-score) [32]: 0.565
- glycan array binding signal (z-score) [33]: -0.862
- glycan array binding signal (z-score) [34]: -1.16
- glycan array binding signal (z-score) [35]: -0.996
- glycan array binding signal (z-score) [36]: 0.82
- glycan array binding signal (z-score) [37]: 0.444
- glycan array binding signal (z-score) [38]: -0.114
- glycan array binding signal (z-score) [39]: 0.94
- glycan array binding signal (z-score) [40]: 0.716
- glycan array binding signal (z-score) [41]: -2.21
- glycan array binding signal (z-score) [42]: -0.251
- glycan array binding signal (z-score) [43]: 0.034
- glycan array binding signal (z-score) [44]: 0.269
- glycan array binding signal (z-score) [45]: -1.22
- glycan array binding signal (z-score) [46]: 2.73
- glycan array binding signal (z-score) [47]: 0.079
- glycan array binding signal (z-score) [48]: -0.354
- glycan array binding signal (z-score) [49]: -1.2
- glycan array binding signal (z-score) [50]: 1.09
- glycan array binding signal (z-score) [51]: -0.937
- glycan array binding signal (z-score) [52]: -0.595
- glycan array binding signal (z-score) [53]: 0.135
- glycan array binding signal (z-score) [54]: 1.25
- glycan array binding signal (z-score) [55]: -0.106
- glycan array binding signal (z-score) [56]: -0.273
- glycan array binding signal (z-score) [57]: 1.08
- glycan array binding signal (z-score) [58]: -0.524
- glycan array binding signal (z-score) [59]: 0.546
- glycan array binding signal (z-score) [60]: 0.554
